Experimental data reported in patent US20230158057A1, “COMPOSITIONS AND METHODS FOR THE TREATMENT OF PAIN” (Duke University, priority 2020, published 2023).
Some of these results come from one statement about several compounds together.

System: mice with CIPN
Experiment: Chemotherapy-induced peripheral neuropathy (CIPN) model established with paclitaxel
Assay type: in vivo, mouse
Conditions: i.p.
Description: Mouse pain models: The chemotherapy-induced peripheral neuropathy (CIPN) model of chronic neuropathic pain was established as we have done previously, using 8-10-week-old CD-1 (strain #022, Charles River) mice injected with paclitaxel (2 mg/kg i.p.) every other day, with 4 injections total. The chronic constriction injury (CCI) model of neuropathic pain was also produced using 8-10-week-old CD-1 under isoflurane anesthesia. Briefly, the right sciatic nerve was exposed above the hip and two ligatures (7-0 Prolene) were placed around the nerve 1 mm apart located proximal to the trifurcation. Ligatures were loosely tied until a subtle flick of the ipsilateral hind limb was observed. CD-1 mice were also used to establish the SNI model, which was generated by tightly ligating the tibial and common peroneal nerves followed by transection and removal of a ˜3 mm portion of the nerve. […] All mice were housed and monitored in accordance with AAALAC standards and Duke IACUC guidelines that pertained to each model.
Reflexive-based sensory testing in mice: All behavioral testing in mice was performed in a specialized humidity- and light-controlled mouse behavior facility maintained at 21-24° C., with testing conducted between the hours of 8:00-16:00. […] We determined the 50% paw withdrawal threshold using the up-down method. […]

Cc1ccc2c(=O)c3cccc(CC(=O)O)c3oc2c1C [DMXAA, 2-(5,6-dimethyl-9-oxo-9H-xanthen-4-yl)acetic acid]
duration of suppression of mechanical allodynia: up to 48 h
